Data as given in PubChem BioAssay AID1259292 (Sanger Institute, 2017).
Shown is a random part of 160 deposited reagents. 64 of them (40%) were called active. 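Four separate siRNAs per gene; a call can rest on any single drug, so look at each drug's score.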 Reagents against one gene are numbered here. Viability is capped at 1. Not stated in the record: the amount of reagent, the time to read-out.

- Assay: 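Kinase partners giving synthetic lethality with three drugs in colorectal cancer cells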 (follow-up of hits)
- Cells: human colorectal cancer RCM1 cells
- Knock-down reagent: single siRNA against human genes
- Challenge: anchor drugs BYL719 at 1 µM, cetuximab at 5 µg/ml or trametinib at 10 nM, or DMSO vehicle; exposure time not given
- Detection: 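Replicate-averaged viability as a fraction of non-targeting pool 2 wells, under DMSO, BYL719 1 µM, cetuximab 5 µg/ml or trametinib 10 nM (time unstated), plus a synergy score for each drug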
- Reading the numbers: synergy score with trametinib and synergy score with cetuximab and synergy score with BYL719: higher = stronger combined killing beyond expected (synthetic lethal); viability with siRNA alone (DMSO) and viability with siRNA plus trametinib: higher = more viable cells
- Rule for the call: 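a gene counts as synergistic when its synergy score is over 0.10 with at least one of the three drugs; otherwise no synergy with any drug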
- Meaning of the calls: active = synergy with at least one anchor drug; inactive = no synergy with any anchor drug

gene knocked down | reagent no. | synergy score with trametinib | synergy score with cetuximab | synergy score with BYL719 | viability with siRNA alone (DMSO) (fraction of control) | viability with siRNA plus trametinib (fraction of control) | outcome
HSPB8 (GeneID 26353) | 1 | 0.306 | -0.0686 | -0.162 | 1 | 0.309 | active
HSPB8 (GeneID 26353) | 2 | -0.347 | -0.0686 | -0.162 | 1 | 0.962 | inactive
HSPB8 (GeneID 26353) | 3 | -0.0364 | -0.0875 | -0.213 | 0.86 | 0.565 | inactive
HSPB8 (GeneID 26353) | 4 | 0.1 | 0.132 | -0.147 | 0.792 | 0.386 | active
IRAK1 (GeneID 3654) | 1 | 0.132 | -0.0876 | -0.0784 | 0.899 | 0.421 | active
IRAK1 (GeneID 3654) | 2 | -0.0692 | -0.029 | -0.0462 | 1 | 0.684 | inactive
IRAK1 (GeneID 3654) | 3 | -0.133 | -0.0084 | -0.0325 | 0.96 | 0.724 | inactive
IRAK1 (GeneID 3654) | 4 | -0.144 | -0.0686 | -0.017 | 1 | 0.759 | inactive
NR2F2 (GeneID 7026) | 1 | 0.177 | 0.0837 | -0.096 | 1 | 0.438 | active
NR2F2 (GeneID 7026) | 2 | 0.0611 | 0.0726 | -0.0129 | 0.996 | 0.551 | inactive
NR2F2 (GeneID 7026) | 3 | 0.186 | 0.035 | -0.0799 | 1 | 0.429 | active
NR2F2 (GeneID 7026) | 4 | 0.191 | -0.0835 | -0.132 | 0.952 | 0.395 | active
MAPKAPK2 (GeneID 9261) | 1 | -0.193 | -0.0686 | -0.162 | 1 | 0.808 | inactive
MAPKAPK2 (GeneID 9261) | 2 | 0.0201 | -0.0686 | -0.132 | 1 | 0.595 | inactive
MAPKAPK2 (GeneID 9261) | 3 | 0.0332 | -0.0541 | 0.112 | 1 | 0.582 | active
MAPKAPK2 (GeneID 9261) | 4 | -0.0357 | 0.0108 | -0.0966 | 0.917 | 0.6 | inactive

Taken from above:
For “viability with siRNA alone (DMSO) (fraction of control)”, IRAK1 (GeneID 3654) #2 shows 1
For “outcome”, IRAK1 (GeneID 3654) #3 reads inactive
Under “viability with siRNA alone (DMSO) (fraction of control)”, HSPB8 (GeneID 26353) #1 has 1

Further results follow:
gene knocked down | reagent no. | synergy score with trametinib | synergy score with cetuximab | synergy score with BYL719 | viability with siRNA alone (DMSO) (fraction of control) | viability with siRNA plus trametinib (fraction of control) | outcome
PINK1 (GeneID 65018) | 1 | 0.0649 | -0.0686 | -0.162 | 1 | 0.55 | inactive
PINK1 (GeneID 65018) | 2 | 0.372 | 0.125 | 0.128 | 0.992 | 0.238 | active
PINK1 (GeneID 65018) | 3 | 0.122 | 0.0238 | -0.00659 | 0.807 | 0.374 | active
PINK1 (GeneID 65018) | 4 | 0.125 | 0.204 | -0.024 | 1 | 0.49 | active
SYNCRIP (GeneID 10492) | 1 | -0.0195 | 0.0848 | -0.123 | 0.51 | 0.333 | inactive
SYNCRIP (GeneID 10492) | 2 | -0.017 | -0.0686 | -0.124 | 1 | 0.632 | inactive
SYNCRIP (GeneID 10492) | 3 | 0.0181 | -0.185 | -0.026 | 0.587 | 0.343 | inactive
SYNCRIP (GeneID 10492) | 4 | -0.0999 | -0.0686 | -0.162 | 1 | 0.715 | inactive
GRK5 (GeneID 2869) | 1 | -0.0191 | -0.0625 | -0.162 | 1 | 0.634 | inactive
GRK5 (GeneID 2869) | 2 | -0.243 | -0.0686 | -0.153 | 1 | 0.858 | inactive
GRK5 (GeneID 2869) | 3 | 0.0136 | -0.0473 | -0.156 | 0.895 | 0.537 | inactive
GRK5 (GeneID 2869) | 4 | 0.0166 | -0.0686 | -0.162 | 1 | 0.598 | inactive
STK36 (GeneID 27148) | 1 | 0.14 | 0.0244 | -0.139 | 0.724 | 0.305 | active
STK36 (GeneID 27148) | 2 | -0.042 | -0.0686 | -0.162 | 1 | 0.657 | inactive
STK36 (GeneID 27148) | 3 | -0.0335 | 0.0247 | -0.149 | 0.826 | 0.541 | inactive
STK36 (GeneID 27148) | 4 | -0.138 | -0.0879 | -0.0398 | 0.979 | 0.74 | inactive
EPHA6 (GeneID 285220) | 1 | 0.111 | -0.0732 | -0.18 | 0.914 | 0.452 | active
EPHA6 (GeneID 285220) | 2 | 0.182 | -0.0445 | 0.104 | 0.71 | 0.254 | active
EPHA6 (GeneID 285220) | 3 | 0.123 | 0.209 | 0.146 | 0.741 | 0.332 | active
EPHA6 (GeneID 285220) | 4 | -0.133 | -0.0113 | -0.0642 | 1 | 0.748 | inactive
